Laboratory results taken from the supplement of paper PMC10849652.
The other results are listed elsewhere or left out.

The chains behind the UniProt entries cited, without tags or fusion partners. Where a name states a change or a piece, a line headed by the entry shows the natural chain unless it says otherwise.
UniProt O43432, whole entry, looked up: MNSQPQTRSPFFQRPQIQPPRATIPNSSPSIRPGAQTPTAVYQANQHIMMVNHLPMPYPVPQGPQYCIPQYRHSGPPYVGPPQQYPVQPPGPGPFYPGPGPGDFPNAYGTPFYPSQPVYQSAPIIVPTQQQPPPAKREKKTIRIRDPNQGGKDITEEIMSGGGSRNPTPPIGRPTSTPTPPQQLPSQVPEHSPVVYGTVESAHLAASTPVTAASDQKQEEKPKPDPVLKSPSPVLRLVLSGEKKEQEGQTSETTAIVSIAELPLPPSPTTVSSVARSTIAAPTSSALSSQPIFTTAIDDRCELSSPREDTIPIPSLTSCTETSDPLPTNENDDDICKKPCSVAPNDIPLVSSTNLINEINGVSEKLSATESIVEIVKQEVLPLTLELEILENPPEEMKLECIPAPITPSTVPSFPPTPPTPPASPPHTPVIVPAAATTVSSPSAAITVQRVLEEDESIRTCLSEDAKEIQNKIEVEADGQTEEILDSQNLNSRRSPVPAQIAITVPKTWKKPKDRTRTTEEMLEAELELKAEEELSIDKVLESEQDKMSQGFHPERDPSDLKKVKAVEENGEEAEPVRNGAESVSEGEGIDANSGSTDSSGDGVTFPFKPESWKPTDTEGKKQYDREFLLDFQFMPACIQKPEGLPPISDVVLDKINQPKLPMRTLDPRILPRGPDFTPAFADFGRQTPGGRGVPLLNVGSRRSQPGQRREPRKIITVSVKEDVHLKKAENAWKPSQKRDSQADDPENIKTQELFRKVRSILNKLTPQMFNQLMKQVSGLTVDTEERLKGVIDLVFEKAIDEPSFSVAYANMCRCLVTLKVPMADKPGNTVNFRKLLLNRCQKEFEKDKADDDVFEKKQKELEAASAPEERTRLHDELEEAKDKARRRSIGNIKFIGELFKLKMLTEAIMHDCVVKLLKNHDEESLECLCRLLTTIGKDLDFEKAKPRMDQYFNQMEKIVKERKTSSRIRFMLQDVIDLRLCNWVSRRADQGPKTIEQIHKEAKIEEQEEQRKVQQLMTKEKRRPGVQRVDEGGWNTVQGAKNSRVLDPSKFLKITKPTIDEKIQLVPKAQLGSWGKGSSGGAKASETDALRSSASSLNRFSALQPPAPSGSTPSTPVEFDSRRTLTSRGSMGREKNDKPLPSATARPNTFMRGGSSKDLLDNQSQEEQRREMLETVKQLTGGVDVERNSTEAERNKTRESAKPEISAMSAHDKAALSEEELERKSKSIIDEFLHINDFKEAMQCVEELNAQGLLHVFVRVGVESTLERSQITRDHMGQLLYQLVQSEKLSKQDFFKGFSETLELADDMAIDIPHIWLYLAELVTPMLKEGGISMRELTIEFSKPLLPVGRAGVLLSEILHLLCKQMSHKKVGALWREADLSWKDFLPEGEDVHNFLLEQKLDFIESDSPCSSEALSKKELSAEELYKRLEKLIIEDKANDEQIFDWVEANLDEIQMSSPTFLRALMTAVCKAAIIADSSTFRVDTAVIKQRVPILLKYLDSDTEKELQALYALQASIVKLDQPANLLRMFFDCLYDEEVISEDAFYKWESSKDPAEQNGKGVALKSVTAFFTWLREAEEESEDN
UniProt Q05BV3: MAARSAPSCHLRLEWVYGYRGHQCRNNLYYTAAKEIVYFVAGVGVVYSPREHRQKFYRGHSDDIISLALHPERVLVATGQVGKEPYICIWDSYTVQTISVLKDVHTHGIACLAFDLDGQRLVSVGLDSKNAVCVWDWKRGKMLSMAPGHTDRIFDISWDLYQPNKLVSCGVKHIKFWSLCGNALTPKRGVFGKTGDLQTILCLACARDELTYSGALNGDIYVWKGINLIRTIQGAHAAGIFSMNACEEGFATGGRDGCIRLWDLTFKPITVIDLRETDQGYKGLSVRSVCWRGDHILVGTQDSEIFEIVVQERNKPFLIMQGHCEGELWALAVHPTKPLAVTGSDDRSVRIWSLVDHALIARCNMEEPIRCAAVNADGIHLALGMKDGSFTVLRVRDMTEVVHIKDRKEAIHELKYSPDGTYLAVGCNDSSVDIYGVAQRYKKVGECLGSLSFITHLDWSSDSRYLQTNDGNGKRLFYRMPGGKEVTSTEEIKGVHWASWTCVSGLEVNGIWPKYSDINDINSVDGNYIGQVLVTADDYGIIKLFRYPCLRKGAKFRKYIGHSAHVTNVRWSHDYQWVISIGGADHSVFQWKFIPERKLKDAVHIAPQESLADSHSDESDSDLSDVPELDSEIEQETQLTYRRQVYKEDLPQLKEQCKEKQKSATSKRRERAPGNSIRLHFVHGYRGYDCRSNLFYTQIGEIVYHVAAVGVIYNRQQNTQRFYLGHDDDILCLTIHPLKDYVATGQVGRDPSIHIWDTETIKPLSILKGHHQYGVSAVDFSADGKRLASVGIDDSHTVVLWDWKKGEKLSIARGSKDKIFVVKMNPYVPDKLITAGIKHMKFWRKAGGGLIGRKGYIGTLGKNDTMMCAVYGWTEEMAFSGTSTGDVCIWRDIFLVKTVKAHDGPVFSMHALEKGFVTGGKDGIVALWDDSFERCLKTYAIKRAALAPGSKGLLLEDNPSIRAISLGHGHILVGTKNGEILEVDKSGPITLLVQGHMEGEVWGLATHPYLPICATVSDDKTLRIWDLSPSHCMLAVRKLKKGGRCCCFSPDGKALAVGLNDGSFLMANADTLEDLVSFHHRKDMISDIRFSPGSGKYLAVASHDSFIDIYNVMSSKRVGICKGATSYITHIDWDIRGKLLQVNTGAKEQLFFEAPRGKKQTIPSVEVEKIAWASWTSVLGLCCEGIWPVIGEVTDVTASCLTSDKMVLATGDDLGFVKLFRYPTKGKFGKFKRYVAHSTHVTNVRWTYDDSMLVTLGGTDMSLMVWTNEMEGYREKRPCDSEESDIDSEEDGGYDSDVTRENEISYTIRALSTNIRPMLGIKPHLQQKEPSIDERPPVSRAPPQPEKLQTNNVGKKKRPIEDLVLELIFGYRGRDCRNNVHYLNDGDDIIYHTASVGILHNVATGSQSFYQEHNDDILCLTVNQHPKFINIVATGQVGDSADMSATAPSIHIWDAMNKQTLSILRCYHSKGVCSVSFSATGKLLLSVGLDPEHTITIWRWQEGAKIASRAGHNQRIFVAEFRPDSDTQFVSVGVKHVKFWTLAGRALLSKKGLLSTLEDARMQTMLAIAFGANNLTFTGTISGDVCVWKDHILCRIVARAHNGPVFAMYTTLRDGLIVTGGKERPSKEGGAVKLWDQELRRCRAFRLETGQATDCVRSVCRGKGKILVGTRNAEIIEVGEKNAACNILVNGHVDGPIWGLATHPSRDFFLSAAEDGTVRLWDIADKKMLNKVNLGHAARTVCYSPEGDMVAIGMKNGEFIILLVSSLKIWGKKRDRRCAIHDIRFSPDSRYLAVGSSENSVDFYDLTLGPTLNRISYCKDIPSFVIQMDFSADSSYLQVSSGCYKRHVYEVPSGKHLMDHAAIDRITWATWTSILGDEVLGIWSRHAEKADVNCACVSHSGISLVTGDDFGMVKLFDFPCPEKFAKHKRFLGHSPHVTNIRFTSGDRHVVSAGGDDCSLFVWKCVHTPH
UniProt Q9BW60: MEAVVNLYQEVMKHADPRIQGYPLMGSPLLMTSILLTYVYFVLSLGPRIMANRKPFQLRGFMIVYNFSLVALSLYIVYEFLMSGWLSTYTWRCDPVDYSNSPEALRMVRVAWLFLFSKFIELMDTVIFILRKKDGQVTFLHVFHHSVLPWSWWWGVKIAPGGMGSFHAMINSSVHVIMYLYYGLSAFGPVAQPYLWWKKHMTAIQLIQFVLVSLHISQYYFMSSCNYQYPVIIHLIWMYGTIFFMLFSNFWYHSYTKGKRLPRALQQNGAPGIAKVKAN
UniProt Q9NYP7: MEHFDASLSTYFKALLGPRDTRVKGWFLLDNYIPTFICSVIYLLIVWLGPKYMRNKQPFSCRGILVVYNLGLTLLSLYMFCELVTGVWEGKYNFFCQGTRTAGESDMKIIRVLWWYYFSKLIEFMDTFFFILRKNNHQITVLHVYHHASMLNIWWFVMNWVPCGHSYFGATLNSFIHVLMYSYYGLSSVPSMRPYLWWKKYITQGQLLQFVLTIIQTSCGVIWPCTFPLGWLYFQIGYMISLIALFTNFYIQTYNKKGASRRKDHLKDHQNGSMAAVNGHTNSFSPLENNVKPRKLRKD
UniProt O60573: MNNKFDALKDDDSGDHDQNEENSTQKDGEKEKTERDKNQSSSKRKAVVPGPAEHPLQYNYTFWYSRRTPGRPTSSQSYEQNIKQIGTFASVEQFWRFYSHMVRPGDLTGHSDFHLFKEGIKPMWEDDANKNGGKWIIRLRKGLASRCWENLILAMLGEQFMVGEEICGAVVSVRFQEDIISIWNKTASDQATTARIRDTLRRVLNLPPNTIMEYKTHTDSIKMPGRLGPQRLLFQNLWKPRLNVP
UniProt Q9H4G0, whole entry, looked up: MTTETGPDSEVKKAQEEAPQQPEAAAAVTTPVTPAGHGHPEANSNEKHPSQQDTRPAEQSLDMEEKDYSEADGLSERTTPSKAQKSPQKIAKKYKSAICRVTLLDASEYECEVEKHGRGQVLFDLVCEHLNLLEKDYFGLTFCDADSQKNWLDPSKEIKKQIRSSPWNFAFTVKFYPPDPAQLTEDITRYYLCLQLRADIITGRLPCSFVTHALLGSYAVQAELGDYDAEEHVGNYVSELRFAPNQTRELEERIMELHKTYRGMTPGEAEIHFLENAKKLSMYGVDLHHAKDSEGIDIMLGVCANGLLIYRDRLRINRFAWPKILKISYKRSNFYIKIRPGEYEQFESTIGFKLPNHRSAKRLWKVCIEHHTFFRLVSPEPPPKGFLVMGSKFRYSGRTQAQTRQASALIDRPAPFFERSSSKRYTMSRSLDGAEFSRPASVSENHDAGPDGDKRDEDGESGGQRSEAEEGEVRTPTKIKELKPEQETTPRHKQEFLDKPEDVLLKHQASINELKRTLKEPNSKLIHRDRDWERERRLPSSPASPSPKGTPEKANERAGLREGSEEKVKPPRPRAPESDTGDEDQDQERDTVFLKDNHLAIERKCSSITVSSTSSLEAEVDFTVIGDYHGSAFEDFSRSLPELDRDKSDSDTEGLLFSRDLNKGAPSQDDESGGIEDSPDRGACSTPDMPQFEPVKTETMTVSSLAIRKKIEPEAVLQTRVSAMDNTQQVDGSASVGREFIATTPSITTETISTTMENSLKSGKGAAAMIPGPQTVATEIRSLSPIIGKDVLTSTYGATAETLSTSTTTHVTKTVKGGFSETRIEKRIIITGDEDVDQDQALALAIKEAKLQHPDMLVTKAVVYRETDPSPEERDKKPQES
UniProt O75071: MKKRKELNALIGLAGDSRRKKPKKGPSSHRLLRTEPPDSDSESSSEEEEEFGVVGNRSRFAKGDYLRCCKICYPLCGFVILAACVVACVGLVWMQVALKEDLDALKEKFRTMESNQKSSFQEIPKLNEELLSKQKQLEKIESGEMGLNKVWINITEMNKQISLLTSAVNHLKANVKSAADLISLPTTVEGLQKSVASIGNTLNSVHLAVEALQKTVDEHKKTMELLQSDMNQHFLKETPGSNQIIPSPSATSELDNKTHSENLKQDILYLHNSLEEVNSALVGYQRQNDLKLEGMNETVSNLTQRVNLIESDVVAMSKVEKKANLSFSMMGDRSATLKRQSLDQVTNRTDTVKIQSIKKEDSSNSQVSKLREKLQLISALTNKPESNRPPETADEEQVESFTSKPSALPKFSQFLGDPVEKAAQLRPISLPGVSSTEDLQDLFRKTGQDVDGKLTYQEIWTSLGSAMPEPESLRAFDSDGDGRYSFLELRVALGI
UniProt O75822, whole entry, looked up: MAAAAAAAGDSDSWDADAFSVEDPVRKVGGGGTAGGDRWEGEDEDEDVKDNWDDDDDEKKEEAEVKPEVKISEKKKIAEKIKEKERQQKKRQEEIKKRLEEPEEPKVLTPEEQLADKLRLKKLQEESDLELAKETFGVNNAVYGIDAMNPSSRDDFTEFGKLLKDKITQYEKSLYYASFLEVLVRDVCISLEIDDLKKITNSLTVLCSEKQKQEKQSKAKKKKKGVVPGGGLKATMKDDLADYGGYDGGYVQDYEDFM
UniProt Q15369, whole entry, looked up: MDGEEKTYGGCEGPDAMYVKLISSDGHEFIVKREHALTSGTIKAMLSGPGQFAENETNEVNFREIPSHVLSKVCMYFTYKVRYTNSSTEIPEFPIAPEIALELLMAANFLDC

Assays:
Experiment in all cases: log2 fold change, soluble protein after heating vs DMSO (PISA); higher = thermal stabilisation; K562 cells, 10 uM, 30 min; active = over 0.2 and 3.5 SD of the protein, either way, in both replicates (recomputed)
saracatinib = compound: CN1CCN(CCOc2cc(OC3CCOCC3)c3c(Nc4c(Cl)ccc5c4OCO5)ncnc3c2)CC1 [saracatinib]
Method in brief: (§1)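 For each measurement, 10 μM compound was applied for 30 min to K562 cells at 2×10^6 cells/mL. Aliquots were heated for 3 min across 48°C-58°C, pooled, and extracted in PBS with 0.5% NP-40 at 4°C; the supernatant after 21,000xg for 90 min was soluble protein. This was quantified by TMTpro 16plex LC-MS/MS with channel sums equalised, and thermal stability was reported relative to control samples from duplicates, on a log2 fold-change scale.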

sotrastaurin = compound: CN1CCN(c2nc(C3=C(c4c[nH]c5ccccc45)C(=O)NC3=O)c3ccccc3n2)CC1 [sotrastaurin]
Method in brief: as §1

Tubastatin A = compound: CN1CCc2c(c3ccccc3n2Cc2ccc(C(=O)NO)cc2)C1 [Tubastatin A]
Method in brief: as §1

[1] = compound: CNC(=O)C1=CC=CC=C1NC2=NC(=NC=C2Cl)NC3=C(C=C(C=C3)N4CCOCC4)OC
Method in brief: as §1

defactinib = compound: CNC(=O)c1ccc(Nc2ncc(C(F)(F)F)c(NCc3nccnc3N(C)S(C)(=O)=O)n2)cc1 [defactinib]
Method in brief: as §1

rucaparib = compound: CNCc1ccc(-c2[nH]c3cc(F)cc4c3c2CCNC4=O)cc1 [rucaparib]
Method in brief: as §1

[2] = compound: CNc1nc(-c2ccc3c(N)n[nH]c3c2)cc(N2C[C@@H](C(=O)NC3CCCCC3)CC[C@H]2C)n1
Method in brief: as §1

encorafenib = compound: COC(=O)N[C@@H](C)CNc1nccc(-c2cn(C(C)C)nc2-c2cc(Cl)cc(NS(C)(=O)=O)c2F)n1 [encorafenib]
Method in brief: as §1

[3] = compound: COC(=O)[C@H](CCSC)NC(=O)C1=C(C=C(C=C1)NC[C@H](CS)N)C2=CC=CC=C2
Method in brief: as §1

[4] = compound: COC1=CC=C(C=C1)CN2C=CC3=C2C=C(C=C3)C(=O)NO
Method in brief: as §1

filanesib = compound: CON(C)C(=O)N1N=C(c2cc(F)ccc2F)S[C@@]1(CCCN)c1ccccc1 [filanesib]
Method in brief: as §1

zotarolimus = compound: CO[C@H]1C[C@@H]2CC[C@@H](C)[C@@](O)(O2)C(=O)C(=O)N2CCCC[C@H]2C(=O)O[C@H]([C@H](C)C[C@@H]2CC[C@H](n3cnnn3)[C@H](OC)C2)CC(=O)[C@H](C)/C=C(\C)[C@@H](O)[C@@H](OC)C(=O)[C@H](C)C[C@H](C)/C=C/C=C/C=C/1C [zotarolimus]
Method in brief: as §1

idasanutlin = compound: COc1cc(C(=O)O)ccc1NC(=O)[C@@H]1N[C@@H](CC(C)(C)C)[C@](C#N)(c2ccc(Cl)cc2F)[C@H]1c1cccc(Cl)c1F [idasanutlin]
Method in brief: as §1

alisertib = compound: COc1cc(Nc2ncc3c(n2)-c2ccc(Cl)cc2C(c2c(F)cccc2OC)=NC3)ccc1C(=O)O [alisertib]
Method in brief: as §1

[5] = compound: COc1cc2nc(-c3cc(F)ccc3O)nc(N[C@@H]3CNC[C@H]3C(C)(C)O)c2cc1OC
Method in brief: as §1

gefitinib = compound: COc1cc2ncnc(Nc3ccc(F)c(Cl)c3)c2cc1OCCCN1CCOCC1 [gefitinib]
Method in brief: as §1

[6] = compound: COc1cccc2cc(-c3nc([C@H]4CC[C@H](C(=O)O)CC4)n4ncnc(N)c34)[nH]c12
Method in brief: as §1

lapatinib = compound: CS(=O)(=O)CCNCc1ccc(-c2ccc3ncnc(Nc4ccc(OCc5cccc(F)c5)c(Cl)c4)c3c2)o1 [lapatinib]
Method in brief: as §1

pictilisib = compound: CS(=O)(=O)N1CCN(Cc2cc3nc(-c4cccc5[nH]ncc45)nc(N4CCOCC4)c3s2)CC1 [pictilisib]
Method in brief: as §1

alvocidib = compound: CN1CC[C@H](c2c(O)cc(O)c3c(=O)cc(-c4ccccc4Cl)oc23)[C@H](O)C1 [alvocidib]
Method in brief: as §1

Measured: log2 fold change

EIF4G3 isoform 3 (UniProt O43432)
inactive: saracatinib -0.076 | sotrastaurin -0.038 | Tubastatin A -0.016 | [1] -0.019 | defactinib 0.04 | rucaparib 0.519 | [2] -0.056 | encorafenib 0.031 | [3] -0.025 | [4] -0.15 | filanesib 0.063 | zotarolimus 0.002 | idasanutlin 0 | alisertib -0.003 | [5] -0.01 | gefitinib 0.032 | [6] -0.32 | lapatinib 0.142

EED, A0A5F9ZI63
inactive: saracatinib 0.008 | sotrastaurin -0.065 | Tubastatin A -0.041 | [1] -0.057 | defactinib -0.04 | rucaparib 0.125 | [2] -0.052 | encorafenib 0.025 | [3] -0.05 | [4] 0.008 | filanesib 0.115 | zotarolimus -0.01 | idasanutlin 0.08 | alisertib -0.097 | [5] 0.032 | gefitinib 0.006 | [6] 0.018 | lapatinib 0.091 | pictilisib -0.163

EML5 isoform 5 (UniProt Q05BV3)
inactive: saracatinib -0.331 | alvocidib 0.123 | Tubastatin A -0.035 | [1] 0.011 | defactinib -0.055 | [2] -0.007 | [3] 0 | [4] -0.111 | zotarolimus 0.237 | idasanutlin -0.201 | alisertib 1.09 | [5] 0.095 | gefitinib -0.021 | [6] 0.117 | lapatinib 0.021

ELOVL1 (UniProt Q9BW60)
inactive: saracatinib 0.015 | sotrastaurin 0.037 | Tubastatin A -0.015 | [1] -0.223 | defactinib -0.029 | rucaparib 0.05 | [2] 0.017 | encorafenib -0.011 | [3] 0 | [4] -0.103 | filanesib -0.139 | zotarolimus -0.051 | idasanutlin -0.051 | alisertib 0.032 | [5] -0.084 | gefitinib -0.087 | [6] 0.032 | lapatinib -0.078 | pictilisib -0.046

ELOVL5 isoform 2 (UniProt Q9NYP7)
inactive: saracatinib -0.037 | sotrastaurin -0.084 | Tubastatin A -0.085 | [1] -0.032 | defactinib -0.016 | rucaparib -0.026 | [2] -0.135 | encorafenib 0.132 | [3] -0.048 | filanesib -0.157 | zotarolimus -0.041 | idasanutlin -0.224 | alisertib -0.026 | [5] -0.05 | gefitinib -0.142 | [6] 0 | lapatinib 0.094 | pictilisib 0

Reprinted from the results shown (3 entries):
EIF4G3 isoform 3 (UniProt O43432)
inactive: saracatinib -0.076 | sotrastaurin -0.038 | Tubastatin A -0.016 | [1] -0.019 | defactinib 0.04 | rucaparib 0.519 | [2] -0.056 | encorafenib 0.031 | [3] -0.025 | [4] -0.15 | filanesib 0.063 | zotarolimus 0.002 | idasanutlin 0 | alisertib -0.003 | [5] -0.01 | gefitinib 0.032 | [6] -0.32 | lapatinib 0.142

EED, A0A5F9ZI63
inactive: saracatinib 0.008 | sotrastaurin -0.065 | Tubastatin A -0.041 | [1] -0.057 | defactinib -0.04 | rucaparib 0.125 | [2] -0.052 | encorafenib 0.025 | [3] -0.05 | [4] 0.008 | filanesib 0.115 | zotarolimus -0.01 | idasanutlin 0.08 | alisertib -0.097 | [5] 0.032 | gefitinib 0.006 | [6] 0.018 | lapatinib 0.091 | pictilisib -0.163

EML5 isoform 5 (UniProt Q05BV3)
inactive: saracatinib -0.331 | alvocidib 0.123 | Tubastatin A -0.035 | [1] 0.011 | defactinib -0.055 | [2] -0.007 | [3] 0 | [4] -0.111 | zotarolimus 0.237 | idasanutlin -0.201 | alisertib 1.09 | [5] 0.095 | gefitinib -0.021 | [6] 0.117 | lapatinib 0.021

More records follow.

EIF4E2 (UniProt O60573)
inactive: saracatinib -0.229 | sotrastaurin -0.288 | Tubastatin A 0.07 | [1] -0.026 | defactinib -0.001 | rucaparib 0.126 | [2] 0.008 | encorafenib -0.013 | [3] -0.013 | [4] -0.062 | filanesib -0.089 | zotarolimus 0.058 | idasanutlin 0.024 | alisertib 0.059 | [5] -0.043 | gefitinib 0.043 | [6] -0.251 | lapatinib 0.033

EPB41L1 (UniProt Q9H4G0)
inactive: saracatinib 0.066 | alvocidib 0.24 | Tubastatin A 0.01 | [1] -0.063 | defactinib -0.069 | rucaparib -0.054 | [2] 0.056 | encorafenib 0.012 | [3] 0.041 | [4] -0.049 | zotarolimus -0.085 | idasanutlin 0.106 | alisertib -0.122 | [5] 0.106 | gefitinib 0.034 | [6] 0.008 | lapatinib -0.003 | pictilisib -0.006

EFCAB14 (UniProt O75071)
inactive: saracatinib -0.164 | sotrastaurin 0.083 | Tubastatin A -0.029 | [1] -0.03 | defactinib 0.093 | rucaparib -0.059 | [2] 0.031 | encorafenib 0.044 | [3] -0.086 | [4] 0.139 | filanesib -0.018 | zotarolimus 0.147 | idasanutlin 0.027 | alisertib 0.043 | [5] -0.014 | gefitinib 0.04 | [6] -0.04 | lapatinib 0.021 | pictilisib 0.06

EIF3J (UniProt O75822)
inactive: saracatinib -0.042 | sotrastaurin -0.028 | Tubastatin A -0.005 | [1] 0.019 | defactinib 0.019 | rucaparib -0.072 | [2] -0.037 | encorafenib -0.008 | [3] -0.029 | [4] -0.067 | filanesib -0.086 | zotarolimus 0.007 | idasanutlin -0.042 | alisertib -0.018 | [5] 0.079 | gefitinib -0.004 | [6] -0.057 | lapatinib -0.057 | pictilisib -0.04

ELOC (UniProt Q15369)
inactive: saracatinib 0.008 | sotrastaurin 0.01 | Tubastatin A 0.035 | [1] 0.025 | defactinib -0.033 | rucaparib -0.021 | [2] 0 | encorafenib -0.021 | [3] -0.014 | [4] 0.007 | filanesib 0.04 | zotarolimus 0.096 | idasanutlin -0.009 | alisertib -0.009 | [5] 0.033 | gefitinib -0.006 | [6] 0.011 | lapatinib -0.002 | pictilisib 0.105

EIF3J isoform 2 (UniProt O75822)
inactive: saracatinib 0.035 | sotrastaurin 0.075 | Tubastatin A -0.082 | [1] -0.021 | defactinib -0.085 | [2] -0.04 | [3] -0.008 | [4] -0.099 | filanesib 0.013 | idasanutlin 0.107 | alisertib -0.074 | [5] 0.051 | gefitinib 0.047 | [6] 0.02 | lapatinib -0.116

EIF2AK1 (UniProt Q9BQI3)
inactive: saracatinib 0.073 | sotrastaurin 0.095 | Tubastatin A 0.128 | [1] 0.002 | defactinib -0.008 | [2] -0.09 | [3] 0.04 | [4] -0.047 | filanesib 0.014 | zotarolimus -0.057 | idasanutlin -0.035 | alisertib 0.032 | [5] 0.01 | [6] -0.089 | lapatinib 0.025 | pictilisib -0.147
